This is one part of the list. Small differences around the control level are noise.
compound: CN[C@@H]1C[C@H]2O[C@@](C)([C@@H]1OC)n1c3ccccc3c3c4c(c5c6ccccc6n2c5c31)C(=O)NC4 [staurosporine]; experiment: log2 fold change of pooled soluble protein (PISA), ligand vs vehicle (log2 ratio); higher = more thermally stabilized; settings: ligand concentration: 20 uM; assay format: PISA pool 52.9/55.5/58.6 C

Protein sequences, listed by entry. Tags and fused reporters are not part of them. Lines headed by an entry give the natural chain unless they say otherwise; changes in a name come on top.
UniProt Q922E4: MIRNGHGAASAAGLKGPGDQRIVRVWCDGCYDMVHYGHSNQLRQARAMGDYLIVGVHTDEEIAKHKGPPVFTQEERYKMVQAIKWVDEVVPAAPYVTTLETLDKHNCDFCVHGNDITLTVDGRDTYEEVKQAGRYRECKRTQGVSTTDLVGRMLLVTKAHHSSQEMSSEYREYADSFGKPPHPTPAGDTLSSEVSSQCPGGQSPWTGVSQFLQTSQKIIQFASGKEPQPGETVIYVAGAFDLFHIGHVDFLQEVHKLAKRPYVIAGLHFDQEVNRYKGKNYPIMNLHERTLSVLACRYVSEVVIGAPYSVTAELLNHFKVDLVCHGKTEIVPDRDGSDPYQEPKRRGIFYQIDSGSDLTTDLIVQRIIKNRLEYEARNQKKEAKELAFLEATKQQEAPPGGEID
UniProt Q8WTY4: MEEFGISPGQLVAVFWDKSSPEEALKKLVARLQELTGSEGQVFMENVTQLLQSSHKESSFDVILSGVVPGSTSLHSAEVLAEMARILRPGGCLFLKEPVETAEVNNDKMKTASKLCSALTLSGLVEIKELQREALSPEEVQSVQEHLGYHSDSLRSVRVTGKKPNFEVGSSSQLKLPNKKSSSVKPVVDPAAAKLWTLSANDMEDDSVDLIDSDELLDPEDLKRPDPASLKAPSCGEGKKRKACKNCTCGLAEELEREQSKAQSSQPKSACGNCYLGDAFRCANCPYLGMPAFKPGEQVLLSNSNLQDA
UniProt Q91XI1: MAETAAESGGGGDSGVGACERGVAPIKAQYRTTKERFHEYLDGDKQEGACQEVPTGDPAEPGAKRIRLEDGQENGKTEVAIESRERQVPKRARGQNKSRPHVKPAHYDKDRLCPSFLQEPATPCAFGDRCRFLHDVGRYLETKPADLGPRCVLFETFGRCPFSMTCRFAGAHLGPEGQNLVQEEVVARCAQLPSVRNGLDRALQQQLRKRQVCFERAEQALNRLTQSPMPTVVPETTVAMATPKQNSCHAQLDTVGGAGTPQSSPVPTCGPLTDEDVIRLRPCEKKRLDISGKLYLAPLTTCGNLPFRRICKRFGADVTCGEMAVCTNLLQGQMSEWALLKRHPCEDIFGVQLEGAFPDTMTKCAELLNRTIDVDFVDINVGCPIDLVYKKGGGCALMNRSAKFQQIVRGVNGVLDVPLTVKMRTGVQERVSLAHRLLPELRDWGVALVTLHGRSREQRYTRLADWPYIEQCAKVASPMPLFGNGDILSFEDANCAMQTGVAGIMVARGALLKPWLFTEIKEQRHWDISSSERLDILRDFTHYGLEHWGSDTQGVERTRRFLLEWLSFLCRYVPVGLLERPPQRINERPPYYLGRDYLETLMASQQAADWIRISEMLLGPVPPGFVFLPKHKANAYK
UniProt Q923D5: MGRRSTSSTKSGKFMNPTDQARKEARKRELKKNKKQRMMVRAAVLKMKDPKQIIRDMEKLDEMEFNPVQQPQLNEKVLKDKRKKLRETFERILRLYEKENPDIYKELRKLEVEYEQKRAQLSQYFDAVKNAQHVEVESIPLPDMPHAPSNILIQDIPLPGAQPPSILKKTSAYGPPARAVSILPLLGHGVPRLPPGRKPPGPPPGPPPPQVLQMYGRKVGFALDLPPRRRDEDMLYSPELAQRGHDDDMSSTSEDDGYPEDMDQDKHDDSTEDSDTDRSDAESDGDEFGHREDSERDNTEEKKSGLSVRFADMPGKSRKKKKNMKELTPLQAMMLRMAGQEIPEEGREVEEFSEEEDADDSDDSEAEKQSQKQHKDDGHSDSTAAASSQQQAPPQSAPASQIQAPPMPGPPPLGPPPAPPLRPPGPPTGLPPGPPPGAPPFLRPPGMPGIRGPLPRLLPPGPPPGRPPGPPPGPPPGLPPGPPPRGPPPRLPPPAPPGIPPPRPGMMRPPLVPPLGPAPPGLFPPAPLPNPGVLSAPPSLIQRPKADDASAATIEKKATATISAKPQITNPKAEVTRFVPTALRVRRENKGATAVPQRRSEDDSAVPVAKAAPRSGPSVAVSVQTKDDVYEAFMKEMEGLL
UniProt Q923X1: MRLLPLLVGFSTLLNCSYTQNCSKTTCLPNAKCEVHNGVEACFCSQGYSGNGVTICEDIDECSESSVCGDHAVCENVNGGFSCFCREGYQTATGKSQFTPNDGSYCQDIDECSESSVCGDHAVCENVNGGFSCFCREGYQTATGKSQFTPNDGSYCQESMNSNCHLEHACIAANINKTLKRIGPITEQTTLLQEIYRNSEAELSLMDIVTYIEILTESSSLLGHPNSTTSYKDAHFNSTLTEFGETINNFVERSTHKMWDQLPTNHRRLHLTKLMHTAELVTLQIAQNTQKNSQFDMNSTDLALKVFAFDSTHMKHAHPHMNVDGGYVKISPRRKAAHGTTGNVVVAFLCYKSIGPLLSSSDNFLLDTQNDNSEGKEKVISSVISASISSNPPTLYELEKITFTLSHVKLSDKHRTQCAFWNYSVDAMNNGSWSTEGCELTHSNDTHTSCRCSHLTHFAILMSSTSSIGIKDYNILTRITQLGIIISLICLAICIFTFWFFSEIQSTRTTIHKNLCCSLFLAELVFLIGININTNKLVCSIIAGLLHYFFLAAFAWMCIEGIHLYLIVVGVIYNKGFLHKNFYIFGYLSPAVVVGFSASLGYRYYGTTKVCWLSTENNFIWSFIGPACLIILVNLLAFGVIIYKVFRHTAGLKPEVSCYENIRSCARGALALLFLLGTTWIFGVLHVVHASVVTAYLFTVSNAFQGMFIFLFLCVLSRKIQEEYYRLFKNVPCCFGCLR
UniProt Q91X34: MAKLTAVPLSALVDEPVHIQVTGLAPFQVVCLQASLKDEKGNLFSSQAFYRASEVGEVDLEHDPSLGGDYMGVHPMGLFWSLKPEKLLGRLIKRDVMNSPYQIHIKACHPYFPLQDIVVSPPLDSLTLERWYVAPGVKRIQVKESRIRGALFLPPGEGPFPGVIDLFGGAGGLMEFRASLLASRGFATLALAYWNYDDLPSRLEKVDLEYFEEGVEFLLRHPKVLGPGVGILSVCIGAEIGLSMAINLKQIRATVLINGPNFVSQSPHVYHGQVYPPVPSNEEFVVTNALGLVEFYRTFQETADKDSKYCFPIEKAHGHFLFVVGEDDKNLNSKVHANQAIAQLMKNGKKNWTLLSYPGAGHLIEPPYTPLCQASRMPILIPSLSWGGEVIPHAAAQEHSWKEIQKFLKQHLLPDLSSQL
UniProt Q91YR1, whole entry: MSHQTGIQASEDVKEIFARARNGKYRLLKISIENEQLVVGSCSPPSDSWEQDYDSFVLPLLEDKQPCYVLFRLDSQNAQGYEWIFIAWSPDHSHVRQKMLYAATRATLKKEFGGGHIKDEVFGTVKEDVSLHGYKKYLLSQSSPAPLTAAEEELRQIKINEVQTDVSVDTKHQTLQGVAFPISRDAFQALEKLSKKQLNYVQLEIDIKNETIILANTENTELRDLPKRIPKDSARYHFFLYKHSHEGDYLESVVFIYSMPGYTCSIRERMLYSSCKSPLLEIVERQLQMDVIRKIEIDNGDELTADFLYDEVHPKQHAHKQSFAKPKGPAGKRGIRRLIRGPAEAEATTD
UniProt Q924M7: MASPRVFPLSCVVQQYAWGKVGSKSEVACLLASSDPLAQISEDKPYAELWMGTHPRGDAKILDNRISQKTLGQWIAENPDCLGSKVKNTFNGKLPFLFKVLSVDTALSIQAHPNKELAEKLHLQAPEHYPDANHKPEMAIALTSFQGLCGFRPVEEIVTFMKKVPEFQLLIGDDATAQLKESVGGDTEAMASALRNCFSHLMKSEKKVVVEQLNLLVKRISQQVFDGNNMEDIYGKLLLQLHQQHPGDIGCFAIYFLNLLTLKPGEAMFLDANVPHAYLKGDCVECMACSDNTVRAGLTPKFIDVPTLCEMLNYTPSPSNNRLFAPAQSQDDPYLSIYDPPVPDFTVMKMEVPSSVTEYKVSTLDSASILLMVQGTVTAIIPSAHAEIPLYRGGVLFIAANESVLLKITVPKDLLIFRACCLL
UniProt Q8VEJ4: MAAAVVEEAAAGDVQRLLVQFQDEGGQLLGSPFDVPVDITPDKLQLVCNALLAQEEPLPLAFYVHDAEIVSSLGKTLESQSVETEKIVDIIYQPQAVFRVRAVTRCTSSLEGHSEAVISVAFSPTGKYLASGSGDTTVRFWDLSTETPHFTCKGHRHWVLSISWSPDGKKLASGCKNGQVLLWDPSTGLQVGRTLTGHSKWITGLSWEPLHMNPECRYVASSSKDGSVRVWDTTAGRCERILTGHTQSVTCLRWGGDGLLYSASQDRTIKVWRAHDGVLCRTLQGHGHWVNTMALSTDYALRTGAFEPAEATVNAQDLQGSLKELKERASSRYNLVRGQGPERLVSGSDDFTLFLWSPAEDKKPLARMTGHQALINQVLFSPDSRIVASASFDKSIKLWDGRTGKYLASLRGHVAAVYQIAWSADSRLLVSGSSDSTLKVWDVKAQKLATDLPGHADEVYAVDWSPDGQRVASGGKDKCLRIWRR
UniProt Q91YP0: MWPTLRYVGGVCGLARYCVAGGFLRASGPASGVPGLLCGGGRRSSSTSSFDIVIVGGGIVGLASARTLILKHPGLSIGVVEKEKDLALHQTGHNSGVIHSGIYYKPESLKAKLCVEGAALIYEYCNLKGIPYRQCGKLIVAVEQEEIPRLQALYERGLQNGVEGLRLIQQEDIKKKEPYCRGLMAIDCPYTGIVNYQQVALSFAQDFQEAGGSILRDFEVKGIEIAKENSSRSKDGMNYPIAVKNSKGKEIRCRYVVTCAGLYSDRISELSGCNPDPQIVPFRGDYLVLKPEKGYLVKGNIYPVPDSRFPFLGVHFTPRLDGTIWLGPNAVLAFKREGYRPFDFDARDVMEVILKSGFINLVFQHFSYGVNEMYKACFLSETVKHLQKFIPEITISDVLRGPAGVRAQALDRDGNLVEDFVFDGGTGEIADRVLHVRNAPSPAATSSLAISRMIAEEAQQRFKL
UniProt Q8VDP6: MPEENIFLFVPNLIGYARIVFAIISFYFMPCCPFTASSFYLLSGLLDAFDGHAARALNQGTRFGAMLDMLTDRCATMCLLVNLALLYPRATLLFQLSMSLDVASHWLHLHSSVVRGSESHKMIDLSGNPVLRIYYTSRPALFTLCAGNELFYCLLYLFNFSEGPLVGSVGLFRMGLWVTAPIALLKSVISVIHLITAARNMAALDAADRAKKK
UniProt Q99020: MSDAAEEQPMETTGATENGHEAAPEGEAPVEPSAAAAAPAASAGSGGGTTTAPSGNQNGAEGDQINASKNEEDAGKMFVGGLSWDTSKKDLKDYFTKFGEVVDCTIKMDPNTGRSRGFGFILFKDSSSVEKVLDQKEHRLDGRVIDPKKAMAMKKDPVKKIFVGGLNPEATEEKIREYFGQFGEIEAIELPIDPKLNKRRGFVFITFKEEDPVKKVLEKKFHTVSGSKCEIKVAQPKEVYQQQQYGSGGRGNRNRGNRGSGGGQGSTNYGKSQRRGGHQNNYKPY
UniProt Q91VD9, whole entry: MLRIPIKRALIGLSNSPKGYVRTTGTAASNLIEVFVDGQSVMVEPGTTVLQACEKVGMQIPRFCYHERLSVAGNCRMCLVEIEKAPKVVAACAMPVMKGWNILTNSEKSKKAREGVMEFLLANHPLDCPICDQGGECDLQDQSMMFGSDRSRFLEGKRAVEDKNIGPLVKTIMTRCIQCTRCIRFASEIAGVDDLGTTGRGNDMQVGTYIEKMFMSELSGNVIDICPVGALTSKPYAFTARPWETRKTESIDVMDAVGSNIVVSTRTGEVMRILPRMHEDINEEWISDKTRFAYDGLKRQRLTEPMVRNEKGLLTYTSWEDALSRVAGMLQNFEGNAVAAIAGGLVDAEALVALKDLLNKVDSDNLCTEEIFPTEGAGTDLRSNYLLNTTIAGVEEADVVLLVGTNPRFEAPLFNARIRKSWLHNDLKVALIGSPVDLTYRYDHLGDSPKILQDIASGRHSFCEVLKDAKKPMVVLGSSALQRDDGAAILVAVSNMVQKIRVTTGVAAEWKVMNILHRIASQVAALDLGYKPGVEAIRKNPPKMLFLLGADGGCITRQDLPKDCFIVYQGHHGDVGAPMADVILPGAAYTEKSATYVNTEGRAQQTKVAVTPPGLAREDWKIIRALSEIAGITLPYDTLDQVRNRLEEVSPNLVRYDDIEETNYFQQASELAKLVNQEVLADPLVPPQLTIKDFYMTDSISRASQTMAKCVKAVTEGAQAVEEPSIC
UniProt Q91WK0: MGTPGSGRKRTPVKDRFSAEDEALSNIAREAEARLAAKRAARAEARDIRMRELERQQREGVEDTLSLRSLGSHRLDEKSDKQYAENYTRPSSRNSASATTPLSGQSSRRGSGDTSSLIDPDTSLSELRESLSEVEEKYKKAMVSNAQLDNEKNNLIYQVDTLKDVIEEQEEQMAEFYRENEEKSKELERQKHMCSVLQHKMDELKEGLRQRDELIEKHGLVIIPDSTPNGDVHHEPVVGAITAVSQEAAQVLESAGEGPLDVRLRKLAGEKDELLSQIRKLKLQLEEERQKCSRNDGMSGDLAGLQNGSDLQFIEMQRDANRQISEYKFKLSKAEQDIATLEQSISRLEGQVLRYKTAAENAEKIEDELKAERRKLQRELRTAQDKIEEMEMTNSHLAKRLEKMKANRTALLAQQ

| Target | log2 fold change of pooled soluble protein |
| --- | --- |
| UniProt Q922E4 | -0.0778 |
| UniProt Q8WTY4 | 0.141 |
| UniProt Q920Q8 | -0.0716 |
| UniProt Q91WM3 | 0.232 |
| UniProt Q99J08 | 0.0544 |
| UniProt Q925N2 | -0.0207 |
| UniProt Q91VW3 | 0.00985 |
| UniProt Q922H4 | 0.17 |
| UniProt Q922J3 | -0.0117 |
| UniProt Q91ZE0 | -0.192 |
| UniProt Q91YT7 | 0.0779 |
| UniProt Q8VCU1 | -0.0556 |
| UniProt Q91XI1 | -0.186 |
| UniProt Q923D5 | -0.00382 |
| UniProt Q923X1 | 0.1 |
| UniProt Q8VCW4 | 0.476 |
| UniProt Q8VE99 | -0.0705 |
| UniProt Q91X77 | 0.0775 |
| UniProt Q91X34 | 0.109 |

| Target | log2 fold change of pooled soluble protein |
| --- | --- |
| UniProt Q91YR1 | 0.0864 |
| UniProt Q921X9 | -0.0255 |
| UniProt Q924M7 | 0.0702 |
| UniProt Q8VEJ4 | -0.116 |
| UniProt Q91VT4 | -0.083 |
| UniProt Q91YP0 | -0.0588 |
| UniProt Q8VDI7 | 0.124 |
| UniProt Q8VDP6 | -0.367 |
| UniProt Q8VCT4 | 0.0152 |
| UniProt Q921W4 | -0.0341 |
| UniProt Q8VE91 | -0.0989 |
| UniProt Q99020 | 0.174 |
| UniProt Q924Y0 | -0.253 |
| UniProt Q8VDN2 | -0.0774 |
| UniProt Q91VD9 | -0.0516 |
| UniProt Q91WK0 | 0.0434 |
| UniProt Q91WJ8 | -0.133 |
| UniProt Q8VCZ9 | -0.1 |

Some of the entries so far, as tab-separated lines.
Target	log2 fold change of pooled soluble protein
UniProt Q8VCT4	0.0152
UniProt Q91WK0	0.0434
